Article PMC11909883
No constants are given. Whether binding was seen depends on the method and setting. Binding seen in cells or lysates may run through a third protein. Some entries that bind do so weakly or less than the wild type. Tags and fused reporters may be left off the sequences shown.

Chains of the proteins cited; added tags and fusions are not shown.
UniProt P63330: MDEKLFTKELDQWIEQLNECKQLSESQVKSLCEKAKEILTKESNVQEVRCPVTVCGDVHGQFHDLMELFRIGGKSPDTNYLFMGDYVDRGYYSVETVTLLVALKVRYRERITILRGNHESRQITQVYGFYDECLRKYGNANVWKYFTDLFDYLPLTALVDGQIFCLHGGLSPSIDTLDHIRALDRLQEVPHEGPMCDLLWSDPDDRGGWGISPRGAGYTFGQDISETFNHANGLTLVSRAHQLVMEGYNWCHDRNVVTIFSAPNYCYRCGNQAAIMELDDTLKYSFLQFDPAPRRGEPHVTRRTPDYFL
UniProt P62715: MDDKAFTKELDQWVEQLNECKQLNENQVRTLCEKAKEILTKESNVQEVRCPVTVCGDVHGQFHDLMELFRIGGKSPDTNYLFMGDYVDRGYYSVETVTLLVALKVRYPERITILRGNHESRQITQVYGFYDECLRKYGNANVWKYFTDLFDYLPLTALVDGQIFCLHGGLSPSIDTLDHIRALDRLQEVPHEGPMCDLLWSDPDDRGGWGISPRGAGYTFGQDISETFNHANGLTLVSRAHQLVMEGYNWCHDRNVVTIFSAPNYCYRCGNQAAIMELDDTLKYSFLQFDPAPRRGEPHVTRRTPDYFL

Biological target: T1, NLR family pyrin domain containing 4 (mouse NLRP4, Nlrp4e), 3xFLAG-tagged (mouse) (UniProt Q66X19)
T1 sequence: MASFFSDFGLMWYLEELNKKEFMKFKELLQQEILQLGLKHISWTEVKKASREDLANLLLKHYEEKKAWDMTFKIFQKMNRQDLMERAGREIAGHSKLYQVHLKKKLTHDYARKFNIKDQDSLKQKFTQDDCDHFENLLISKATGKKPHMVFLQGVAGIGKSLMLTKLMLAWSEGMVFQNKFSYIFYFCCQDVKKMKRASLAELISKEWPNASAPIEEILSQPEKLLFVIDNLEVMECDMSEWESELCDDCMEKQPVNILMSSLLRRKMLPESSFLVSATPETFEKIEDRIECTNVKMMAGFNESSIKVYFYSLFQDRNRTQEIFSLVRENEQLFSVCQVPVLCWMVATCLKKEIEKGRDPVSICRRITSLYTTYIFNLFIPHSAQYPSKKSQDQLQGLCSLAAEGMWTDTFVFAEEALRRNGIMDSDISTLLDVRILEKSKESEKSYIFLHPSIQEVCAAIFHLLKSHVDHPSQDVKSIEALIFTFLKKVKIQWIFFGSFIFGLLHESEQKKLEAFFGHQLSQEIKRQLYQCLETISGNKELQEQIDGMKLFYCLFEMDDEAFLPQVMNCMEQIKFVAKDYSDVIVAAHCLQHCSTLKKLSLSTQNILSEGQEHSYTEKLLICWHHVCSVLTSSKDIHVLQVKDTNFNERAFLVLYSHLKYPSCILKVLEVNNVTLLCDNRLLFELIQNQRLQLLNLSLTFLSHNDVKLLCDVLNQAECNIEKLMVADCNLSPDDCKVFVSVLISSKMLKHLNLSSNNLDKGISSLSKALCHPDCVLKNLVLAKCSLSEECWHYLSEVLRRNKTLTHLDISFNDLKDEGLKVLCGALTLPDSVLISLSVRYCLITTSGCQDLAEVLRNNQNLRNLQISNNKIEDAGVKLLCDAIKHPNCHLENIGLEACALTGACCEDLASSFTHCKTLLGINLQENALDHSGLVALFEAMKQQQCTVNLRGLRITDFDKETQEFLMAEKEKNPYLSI
Experiment: co-IP; flag antibody (or PP2A and p-PP2A, per the legend) incubated with lysate of LLC NLRP4-NC and NLRP4-OE cells overnight at 4 °C, Protein A/G magnetic beads, RIPA buffer, immunoblot

| binding | Substance |
| --- | --- |
| binds | PPP2CA, catalytic subunit of PP2A (from UniProt P63330 1-309) (enzyme) |
| binds | PPP2CB, beta isoform of the catalytic subunit of PP2A (from UniProt P62715 1-309) (enzyme) |
